Some of these results come from one statement about several compounds together.
Tested on: cotton aphid (Aphis gossypii)
Test: Foliar test against cotton aphid on cotton seedlings
Assay type: in vivo
Details: text summary of Table 3, rate not stated
Procedure: Candidate pesticides, i.e., insecticides of the present invention were evaluated on 7-10 day old cotton seedlings infested with cotton aphid (Aphis gossypii). At least 12 hours prior to the test, leaf cuttings containing about 50 adult aphids were placed on leaves of each of duplicate cotton seedlings for each rate of application of candidate insecticide. Solutions of the candidate insecticide were prepared for testing by serial dilution of a standard solution comprised of an appropriate amount of insecticide in a water/acetone solvent, which contained a small amount of a surfactant. Rates of application of candidate insecticide may range from about 1000 ppm, or more, to about 3 ppm, or less, in a rate series of, for example, 1000 ppm, 100 ppm, 30 ppm, 10 ppm, and 3 ppm. The solutions containing each rate of application of candidate insecticide were then sprayed to run-off to both the upper and lower portions of the leaves of the aphid-infested cotton seedlings. […] Upon completion of the evaluation of the test, the percent mortality of the cotton aphid for each rate of application of the candidate insecticide was determined by comparison of the total number of dead insects to the total number of insects in the test.

CCCOc1nsnc1C1CN2CCC1CC2 (stereo not shown) [Compound 109]
insect mortality: greater than 65%

Source: patent US20060241097A1, “Pesticidal substituted 1,2,5-thiadiazole derivatives” (FMC CORPORATION, priority 2003, published 2006)
